Data on 39 targets can be found in the supplement of paper PMC10849652.

Sequences of proteins named here, by UniProt entry; tags and fusion partners are left off. A change or cut given only in a name is not applied to a line headed by its entry.
UniProt P50552: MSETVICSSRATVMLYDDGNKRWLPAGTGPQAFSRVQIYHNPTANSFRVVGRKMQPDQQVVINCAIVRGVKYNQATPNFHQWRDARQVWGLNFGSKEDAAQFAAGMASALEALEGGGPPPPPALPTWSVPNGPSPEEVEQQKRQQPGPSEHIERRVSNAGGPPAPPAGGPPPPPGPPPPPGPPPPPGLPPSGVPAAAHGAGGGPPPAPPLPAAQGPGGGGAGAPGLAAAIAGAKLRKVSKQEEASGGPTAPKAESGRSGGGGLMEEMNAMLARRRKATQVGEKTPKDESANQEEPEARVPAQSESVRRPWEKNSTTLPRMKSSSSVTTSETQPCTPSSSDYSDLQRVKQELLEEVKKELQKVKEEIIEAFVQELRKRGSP
UniProt Q9HA47: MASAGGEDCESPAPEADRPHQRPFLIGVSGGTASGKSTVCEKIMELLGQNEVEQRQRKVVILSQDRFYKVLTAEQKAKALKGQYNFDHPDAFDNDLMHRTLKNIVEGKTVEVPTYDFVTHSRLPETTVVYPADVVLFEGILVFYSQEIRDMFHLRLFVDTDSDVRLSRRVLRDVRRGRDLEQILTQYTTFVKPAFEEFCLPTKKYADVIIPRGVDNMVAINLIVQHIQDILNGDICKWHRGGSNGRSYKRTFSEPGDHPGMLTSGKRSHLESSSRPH
UniProt Q9NZ43: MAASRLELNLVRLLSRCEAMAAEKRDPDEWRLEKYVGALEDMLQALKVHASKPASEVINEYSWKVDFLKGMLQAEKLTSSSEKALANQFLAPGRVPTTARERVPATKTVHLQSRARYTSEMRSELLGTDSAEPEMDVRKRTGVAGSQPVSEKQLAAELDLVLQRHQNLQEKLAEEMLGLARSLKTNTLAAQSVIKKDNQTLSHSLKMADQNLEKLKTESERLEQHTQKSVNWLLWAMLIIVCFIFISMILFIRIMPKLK
UniProt Q15386: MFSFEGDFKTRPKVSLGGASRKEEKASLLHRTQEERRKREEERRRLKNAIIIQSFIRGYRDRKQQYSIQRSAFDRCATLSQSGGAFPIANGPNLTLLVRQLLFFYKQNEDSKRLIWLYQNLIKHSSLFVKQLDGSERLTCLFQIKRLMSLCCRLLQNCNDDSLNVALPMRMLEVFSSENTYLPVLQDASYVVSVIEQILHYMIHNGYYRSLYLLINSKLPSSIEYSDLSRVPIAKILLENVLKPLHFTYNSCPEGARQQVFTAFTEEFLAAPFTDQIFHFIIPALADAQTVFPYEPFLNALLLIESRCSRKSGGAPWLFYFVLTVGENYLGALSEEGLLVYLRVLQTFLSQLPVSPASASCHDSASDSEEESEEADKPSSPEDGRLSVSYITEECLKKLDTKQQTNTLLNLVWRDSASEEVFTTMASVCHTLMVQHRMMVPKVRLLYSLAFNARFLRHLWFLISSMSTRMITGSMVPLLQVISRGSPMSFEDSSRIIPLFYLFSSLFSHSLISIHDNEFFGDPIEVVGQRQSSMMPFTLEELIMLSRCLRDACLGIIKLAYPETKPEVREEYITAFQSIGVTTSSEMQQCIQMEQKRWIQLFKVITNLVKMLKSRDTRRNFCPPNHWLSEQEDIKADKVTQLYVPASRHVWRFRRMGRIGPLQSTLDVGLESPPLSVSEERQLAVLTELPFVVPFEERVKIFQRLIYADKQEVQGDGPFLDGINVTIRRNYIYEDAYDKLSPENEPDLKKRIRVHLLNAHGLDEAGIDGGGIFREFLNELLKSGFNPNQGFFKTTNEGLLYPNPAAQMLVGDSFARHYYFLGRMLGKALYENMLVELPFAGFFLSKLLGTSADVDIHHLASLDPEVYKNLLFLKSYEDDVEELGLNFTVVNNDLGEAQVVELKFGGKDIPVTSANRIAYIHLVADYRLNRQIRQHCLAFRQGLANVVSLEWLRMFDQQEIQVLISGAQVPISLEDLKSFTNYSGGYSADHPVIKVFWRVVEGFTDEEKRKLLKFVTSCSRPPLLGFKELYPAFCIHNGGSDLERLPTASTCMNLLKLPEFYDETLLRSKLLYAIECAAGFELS
UniProt Q8N806: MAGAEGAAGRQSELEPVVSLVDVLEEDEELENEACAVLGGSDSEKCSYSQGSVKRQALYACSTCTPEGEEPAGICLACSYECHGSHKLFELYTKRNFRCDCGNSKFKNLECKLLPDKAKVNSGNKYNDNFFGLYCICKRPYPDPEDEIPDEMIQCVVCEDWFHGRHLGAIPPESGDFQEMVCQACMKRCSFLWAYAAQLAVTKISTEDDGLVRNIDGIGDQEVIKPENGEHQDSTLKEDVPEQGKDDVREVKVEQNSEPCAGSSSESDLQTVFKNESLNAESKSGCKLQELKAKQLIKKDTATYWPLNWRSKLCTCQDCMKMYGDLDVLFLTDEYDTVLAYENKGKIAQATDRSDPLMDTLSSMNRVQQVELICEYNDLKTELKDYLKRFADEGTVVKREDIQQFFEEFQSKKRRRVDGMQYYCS
UniProt Q9NQZ2: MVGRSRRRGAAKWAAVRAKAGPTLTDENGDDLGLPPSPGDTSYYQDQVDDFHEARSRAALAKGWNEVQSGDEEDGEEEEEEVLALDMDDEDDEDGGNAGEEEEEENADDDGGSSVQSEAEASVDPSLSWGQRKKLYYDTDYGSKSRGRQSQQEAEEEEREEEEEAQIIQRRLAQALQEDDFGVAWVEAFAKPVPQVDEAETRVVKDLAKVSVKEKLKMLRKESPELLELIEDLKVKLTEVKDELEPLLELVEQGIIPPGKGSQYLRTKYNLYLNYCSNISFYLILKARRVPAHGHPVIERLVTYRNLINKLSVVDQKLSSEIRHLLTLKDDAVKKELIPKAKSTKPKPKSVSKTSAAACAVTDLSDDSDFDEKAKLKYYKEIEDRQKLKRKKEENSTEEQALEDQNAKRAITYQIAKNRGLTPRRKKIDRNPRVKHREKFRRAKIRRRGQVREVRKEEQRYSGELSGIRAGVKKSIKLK
UniProt Q70CQ3: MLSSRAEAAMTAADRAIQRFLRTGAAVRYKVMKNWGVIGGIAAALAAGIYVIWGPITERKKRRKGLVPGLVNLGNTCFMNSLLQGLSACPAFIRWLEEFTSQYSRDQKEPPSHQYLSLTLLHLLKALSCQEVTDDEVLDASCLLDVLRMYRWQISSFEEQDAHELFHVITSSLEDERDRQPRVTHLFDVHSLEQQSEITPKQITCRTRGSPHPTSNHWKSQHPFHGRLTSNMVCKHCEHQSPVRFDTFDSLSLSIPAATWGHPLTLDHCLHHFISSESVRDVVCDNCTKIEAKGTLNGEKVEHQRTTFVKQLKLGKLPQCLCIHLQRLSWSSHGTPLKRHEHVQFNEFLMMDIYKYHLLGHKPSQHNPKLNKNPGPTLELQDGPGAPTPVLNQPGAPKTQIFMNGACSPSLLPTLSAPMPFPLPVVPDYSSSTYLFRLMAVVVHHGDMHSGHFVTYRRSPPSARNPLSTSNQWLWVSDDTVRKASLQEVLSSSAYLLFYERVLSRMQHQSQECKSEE
UniProt P61960, whole entry, looked up: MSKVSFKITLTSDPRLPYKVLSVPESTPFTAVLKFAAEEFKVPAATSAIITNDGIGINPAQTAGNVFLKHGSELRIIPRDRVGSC
UniProt Q9P0L0: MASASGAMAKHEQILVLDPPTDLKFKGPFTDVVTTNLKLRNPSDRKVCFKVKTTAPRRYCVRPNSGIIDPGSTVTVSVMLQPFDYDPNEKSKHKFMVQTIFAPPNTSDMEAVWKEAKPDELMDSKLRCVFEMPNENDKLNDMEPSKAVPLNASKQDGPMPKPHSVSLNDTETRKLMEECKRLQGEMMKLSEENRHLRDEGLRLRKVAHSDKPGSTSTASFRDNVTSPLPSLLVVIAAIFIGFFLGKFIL
UniProt Q9UPU5: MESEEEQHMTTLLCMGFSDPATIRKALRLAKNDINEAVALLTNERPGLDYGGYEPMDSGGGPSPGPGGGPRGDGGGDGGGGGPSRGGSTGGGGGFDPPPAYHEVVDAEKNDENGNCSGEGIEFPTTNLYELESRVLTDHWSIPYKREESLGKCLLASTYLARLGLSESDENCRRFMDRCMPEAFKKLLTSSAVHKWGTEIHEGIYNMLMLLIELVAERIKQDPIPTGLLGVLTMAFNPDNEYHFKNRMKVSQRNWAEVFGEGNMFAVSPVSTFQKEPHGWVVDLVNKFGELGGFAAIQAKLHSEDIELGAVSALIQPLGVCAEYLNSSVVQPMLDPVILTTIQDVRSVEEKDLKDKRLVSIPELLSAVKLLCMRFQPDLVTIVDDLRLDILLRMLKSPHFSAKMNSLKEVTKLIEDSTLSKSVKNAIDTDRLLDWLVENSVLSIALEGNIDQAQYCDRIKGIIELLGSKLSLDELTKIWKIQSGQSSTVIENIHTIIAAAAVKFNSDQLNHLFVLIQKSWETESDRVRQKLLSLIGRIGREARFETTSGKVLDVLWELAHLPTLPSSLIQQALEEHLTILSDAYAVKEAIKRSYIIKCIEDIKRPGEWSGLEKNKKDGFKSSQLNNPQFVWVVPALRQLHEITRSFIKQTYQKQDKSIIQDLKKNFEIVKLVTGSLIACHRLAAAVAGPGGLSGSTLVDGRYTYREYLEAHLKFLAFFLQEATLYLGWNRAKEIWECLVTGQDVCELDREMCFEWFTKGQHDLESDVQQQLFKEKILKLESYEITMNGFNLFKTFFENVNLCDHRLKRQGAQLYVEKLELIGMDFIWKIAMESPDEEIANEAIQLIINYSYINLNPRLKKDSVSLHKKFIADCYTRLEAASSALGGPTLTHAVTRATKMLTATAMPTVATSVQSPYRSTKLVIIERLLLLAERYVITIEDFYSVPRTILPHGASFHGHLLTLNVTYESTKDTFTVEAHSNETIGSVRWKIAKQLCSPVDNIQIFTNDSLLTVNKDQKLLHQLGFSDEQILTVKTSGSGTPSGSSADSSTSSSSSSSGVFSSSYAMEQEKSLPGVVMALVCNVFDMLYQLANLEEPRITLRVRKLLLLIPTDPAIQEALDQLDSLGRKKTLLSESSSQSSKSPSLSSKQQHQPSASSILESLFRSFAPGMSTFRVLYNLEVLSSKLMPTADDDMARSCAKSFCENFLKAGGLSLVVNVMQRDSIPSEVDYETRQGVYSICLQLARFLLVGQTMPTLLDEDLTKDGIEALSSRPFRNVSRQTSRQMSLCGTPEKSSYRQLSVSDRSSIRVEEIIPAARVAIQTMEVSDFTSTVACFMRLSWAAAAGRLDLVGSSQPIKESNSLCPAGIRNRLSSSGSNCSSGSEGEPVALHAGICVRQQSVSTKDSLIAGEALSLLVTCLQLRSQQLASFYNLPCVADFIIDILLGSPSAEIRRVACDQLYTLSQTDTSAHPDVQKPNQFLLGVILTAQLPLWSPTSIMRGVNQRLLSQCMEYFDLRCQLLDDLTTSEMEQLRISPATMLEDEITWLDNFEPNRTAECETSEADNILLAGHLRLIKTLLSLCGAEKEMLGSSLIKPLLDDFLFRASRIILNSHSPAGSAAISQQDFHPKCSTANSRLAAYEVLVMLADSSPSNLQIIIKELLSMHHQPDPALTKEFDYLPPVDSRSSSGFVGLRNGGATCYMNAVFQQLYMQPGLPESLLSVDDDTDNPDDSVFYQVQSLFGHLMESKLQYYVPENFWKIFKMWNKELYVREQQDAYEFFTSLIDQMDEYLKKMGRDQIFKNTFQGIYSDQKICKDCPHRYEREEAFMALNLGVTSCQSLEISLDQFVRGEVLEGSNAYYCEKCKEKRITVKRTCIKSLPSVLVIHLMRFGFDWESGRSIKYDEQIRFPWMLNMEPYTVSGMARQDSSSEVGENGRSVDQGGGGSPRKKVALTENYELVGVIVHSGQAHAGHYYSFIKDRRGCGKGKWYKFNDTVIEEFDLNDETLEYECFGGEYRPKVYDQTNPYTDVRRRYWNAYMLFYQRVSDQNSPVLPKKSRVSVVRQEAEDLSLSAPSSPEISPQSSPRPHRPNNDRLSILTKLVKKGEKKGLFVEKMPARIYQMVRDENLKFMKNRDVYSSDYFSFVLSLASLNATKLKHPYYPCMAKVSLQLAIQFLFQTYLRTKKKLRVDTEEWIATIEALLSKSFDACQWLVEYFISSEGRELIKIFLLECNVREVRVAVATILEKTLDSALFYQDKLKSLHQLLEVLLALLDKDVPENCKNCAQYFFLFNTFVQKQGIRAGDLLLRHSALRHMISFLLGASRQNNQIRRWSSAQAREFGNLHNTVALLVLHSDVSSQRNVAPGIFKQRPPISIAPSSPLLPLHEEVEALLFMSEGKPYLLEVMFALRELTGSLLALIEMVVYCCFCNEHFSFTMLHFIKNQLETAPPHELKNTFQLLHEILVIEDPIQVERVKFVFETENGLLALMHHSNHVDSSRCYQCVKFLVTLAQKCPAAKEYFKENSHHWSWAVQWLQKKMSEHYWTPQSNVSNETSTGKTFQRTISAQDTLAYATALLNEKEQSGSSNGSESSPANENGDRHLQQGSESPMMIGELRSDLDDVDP
UniProt P07919: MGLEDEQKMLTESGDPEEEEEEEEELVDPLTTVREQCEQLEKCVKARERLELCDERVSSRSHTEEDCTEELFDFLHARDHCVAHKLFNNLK
UniProt P14927: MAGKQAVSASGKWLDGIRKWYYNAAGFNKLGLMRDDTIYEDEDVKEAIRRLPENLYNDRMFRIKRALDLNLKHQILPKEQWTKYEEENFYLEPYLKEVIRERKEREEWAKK

This is one part of the list.

Compound in the first assay: C/C(=N\NC(=O)C1=CC(=CC=C1)S(=O)(=O)N2CCOCC2)/C3=C(C=CC(=C3)Cl)O
Nature of the assay: log2 fold change, soluble protein after heating vs DMSO (PISA); higher = thermal stabilisation; K562 cells, 10 uM, 30 min; active = over 0.2 and 3.5 SD of the protein, either way, in both replicates (recomputed). An outline of the steps:
(§1)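 K562 cells at 2×10^6 cells/mL were treated with 10 μM compound for 30 min. Aliquots were heated for 3 min across 48°C-58°C, pooled, and extracted in PBS with 0.5% NP-40 at 4°C; soluble protein was the supernatant after 21,000xg for 90 min. Soluble protein was quantified by TMTpro 16plex LC-MS/MS with channel sums equalised, and reported as log2 fold change in thermal stability against DMSO controls, with values from duplicates.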
With VASP (UniProt P50552), the log2 fold change is inactive: 0.078.

For the target UCK1 (UniProt Q9HA47), the log2 fold change was inactive: 0.11.

For the target USE1 (UniProt Q9NZ43), the log2 fold change is inactive: 0.

Consider UBE3C (UniProt Q15386), for which the log2 fold change was inactive: 0.028.

As to UBE4B isoform 4 (UniProt O95155), the log2 fold change was inactive: 0.026.

As for UBR7 (UniProt Q8N806), the log2 fold change is inactive: 0.042.

In the case of UBQLN2 (UniProt Q9UHD9), the log2 fold change was inactive: 0.001.

Consider UHRF1BP1 (UniProt Q6BDS2), for which the log2 fold change was inactive: -0.01.

Regarding UTP3 (UniProt Q9NQZ2), the log2 fold change was inactive: -0.076.

USP30 (UniProt Q70CQ3): the log2 fold change is inactive: -0.026.

In the case of UFM1 (UniProt P61960), the log2 fold change was inactive: 0.072.

USP7 (UniProt Q93009): the log2 fold change was inactive: 0.139.

For UGGT1 (UniProt Q9NYU2), the log2 fold change is inactive: 0.016.

In the case of VAPA isoform 2 (UniProt Q9P0L0), the log2 fold change was inactive: -0.051.

Take VARS2, A0A0G2JL52: the log2 fold change was inactive: 0.006.

On to USP24 (UniProt Q9UPU5), for which the log2 fold change was inactive: -0.147.

Compound in a further assay: C1=CC(=C(C=C1Cl)C2=NC3=NC=CN=C3C(=N2)NC4=CC=NC=C4)F
Described as above. An outline of the steps: as §1
VANGL1 (UniProt Q8TAA9): the log2 fold change is inactive: -0.2.

With URGCP (UniProt Q8TCY9), the log2 fold change was inactive: -0.07.

As to VAT1 (UniProt Q99536), the log2 fold change was inactive: 0.02.

In the case of UBL7 (UniProt Q96S82), the log2 fold change is inactive: 0.019.

Turning to USP10 isoform 2 (UniProt Q14694), the log2 fold change is inactive: -0.124.

For the target UBXN7 (UniProt O94888), the log2 fold change is inactive: 0.046.

Turning to USP19 isoform 6 (UniProt O94966), the log2 fold change is inactive: 0.055.

As to UBL5 (UniProt Q9BZL1), the log2 fold change was inactive: 0.084.

Turning to UQCRH (UniProt P07919), the log2 fold change was inactive: 0.051.

On to UROS (UniProt P10746), for which the log2 fold change was inactive: 0.049.

As to UBR5 (UniProt O95071), the log2 fold change is inactive: -0.056.

In the case of UBE3D (UniProt Q7Z6J8), the log2 fold change was inactive: 0.033.

With UFL1 (UniProt O94874), the log2 fold change is inactive: 0.037.

Take UTP14A (UniProt Q9BVJ6): the log2 fold change was inactive: -0.301.

With UBQLN1 (UniProt Q9UMX0), the log2 fold change is inactive: 0.037.

With UQCRQ (UniProt O14949), the log2 fold change was inactive: 0.07.

In the case of UFD1 isoform 1 (UniProt Q92890), the log2 fold change was inactive: 0.051.

On to UNC45A (UniProt Q9H3U1), for which the log2 fold change was inactive: -0.086.

Take UQCR10 (UniProt Q9UDW1): the log2 fold change was inactive: 0.069.

Turning to UBXN1 (UniProt Q04323), the log2 fold change is inactive: 0.082.

For the target VARS (UniProt P26640), the log2 fold change was inactive: -0.002.

Consider UQCRB (UniProt P14927), for which the log2 fold change is inactive: 0.019.

On to USP47 (UniProt Q96K76), for which the log2 fold change was inactive: -0.125.

For the target VASP (UniProt P50552), the log2 fold change is inactive: -0.051.

Consider UCK1 (UniProt Q9HA47), for which the log2 fold change was inactive: 0.102.

With USE1 (UniProt Q9NZ43), the log2 fold change was inactive: 0.005.

As for UBE3C (UniProt Q15386), the log2 fold change is inactive: -0.021.

Turning to UBE4B isoform 4 (UniProt O95155), the log2 fold change is inactive: 0.041.

For the target UBR7 (UniProt Q8N806), the log2 fold change is inactive: 0.084.

As to UBQLN2 (UniProt Q9UHD9), the log2 fold change is inactive: 0.118.

Regarding UHRF1BP1 (UniProt Q6BDS2), the log2 fold change is inactive: 0.011.

Turning to UTP3 (UniProt Q9NQZ2), the log2 fold change was inactive: -0.748.

With USP30 (UniProt Q70CQ3), the log2 fold change was inactive: 0.063.

For UFM1 (UniProt P61960), the log2 fold change is inactive: 0.093.

For USP7 (UniProt Q93009), the log2 fold change is inactive: 0.046.

UGGT1 (UniProt Q9NYU2): the log2 fold change was inactive: 0.007.

In the case of VAPA isoform 2 (UniProt Q9P0L0), the log2 fold change is inactive: -0.018.

On to VARS2, A0A0G2JL52, for which the log2 fold change is inactive: -0.002.

Turning to USP24 (UniProt Q9UPU5), the log2 fold change is inactive: 0.101.

Compound in another assay: C1=CC(=CC=C1C2=NC3=C(N2)C=C(C=C3)C(=O)N)OC4=CC=C(C=C4)Cl
Described as above. Put shortly: as §1
Consider VANGL1 (UniProt Q8TAA9), for which the log2 fold change is inactive: 0.052.

For URGCP (UniProt Q8TCY9), the log2 fold change was inactive: 0.025.

VAT1 (UniProt Q99536): the log2 fold change was inactive: -0.019.

Turning to UBL7 (UniProt Q96S82), the log2 fold change was inactive: -0.006.

For USP10 isoform 2 (UniProt Q14694), the log2 fold change is inactive: 0.034.

UBXN7 (UniProt O94888): the log2 fold change was inactive: 0.037.

Consider USP19 isoform 6 (UniProt O94966), for which the log2 fold change was inactive: 0.021.

In the case of UBL5 (UniProt Q9BZL1), the log2 fold change was inactive: 0.044.

As to UQCRH (UniProt P07919), the log2 fold change was inactive: -0.067.

As to UROS (UniProt P10746), the log2 fold change was inactive: -0.046.

Consider UBR5 (UniProt O95071), for which the log2 fold change was inactive: -0.025.

As to UBE3D (UniProt Q7Z6J8), the log2 fold change is inactive: 0.022.

For the target UFL1 (UniProt O94874), the log2 fold change is inactive: -0.03.

Turning to UTP14A (UniProt Q9BVJ6), the log2 fold change is inactive: 0.06.

Regarding UBQLN1 (UniProt Q9UMX0), the log2 fold change is inactive: -0.019.

As for UQCRQ (UniProt O14949), the log2 fold change is inactive: 0.026.

UFD1 isoform 1 (UniProt Q92890): the log2 fold change is inactive: -0.008.

In the case of UNC45A (UniProt Q9H3U1), the log2 fold change was inactive: -0.008.

Regarding UQCR10 (UniProt Q9UDW1), the log2 fold change is inactive: -0.023.

Take UBXN1 (UniProt Q04323): the log2 fold change is inactive: -0.026.

In the case of VARS (UniProt P26640), the log2 fold change is inactive: -0.003.

Take UQCRB (UniProt P14927): the log2 fold change was inactive: 0.001.

As to USP47 (UniProt Q96K76), the log2 fold change was inactive: 0.034.

For VASP (UniProt P50552), the log2 fold change was inactive: -0.046.

As to UCK1 (UniProt Q9HA47), the log2 fold change is inactive: -0.013.

Take USE1 (UniProt Q9NZ43): the log2 fold change is inactive: 0.078.

Consider UBE3C (UniProt Q15386), for which the log2 fold change was inactive: 0.005.

Take UBE4B isoform 4 (UniProt O95155): the log2 fold change is inactive: -0.016.

As for UBR7 (UniProt Q8N806), the log2 fold change was inactive: -0.021.

UBQLN2 (UniProt Q9UHD9): the log2 fold change is inactive: -0.013.

Turning to UHRF1BP1 (UniProt Q6BDS2), the log2 fold change is inactive: 0.033.

For UTP3 (UniProt Q9NQZ2), the log2 fold change was inactive: 0.063.

Consider USP30 (UniProt Q70CQ3), for which the log2 fold change is inactive: -0.102.

As for UFM1 (UniProt P61960), the log2 fold change was inactive: 0.064.

As to USP7 (UniProt Q93009), the log2 fold change was inactive: 0.

As to UGGT1 (UniProt Q9NYU2), the log2 fold change is inactive: 0.007.

For VAPA isoform 2 (UniProt Q9P0L0), the log2 fold change was inactive: -0.064.

For VARS2, A0A0G2JL52, the log2 fold change is inactive: 0.

As for USP24 (UniProt Q9UPU5), the log2 fold change is inactive: -0.113.
